Data as given in PubChem BioAssay AID686943 (Drosophila RNAi Screening Center, 2013)
Aim: 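Search across the genome for regulators of signalling from receptor tyrosine kinase to ERK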 (primary screen). Cells: Drosophila S2R+ haemocyte-like cells expressing YFP-tagged ERK (Rolled). Knock-down reagent: long dsRNA against Drosophila genes. Challenge: insulin stimulation versus unstimulated cells; dose and duration not given. Measurement: 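Per-plate z-scores of phospho-ERK immunostaining normalised to YFP-tagged ERK, measured with and without insulin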. Reading the numbers: replicate 1, z-score of dpERK with insulin and replicate 2, z-score of dpERK with insulin: higher = more active ERK per ERK-YFP after insulin; replicate 1, z-score of dpERK under basal conditions: higher = more basal active ERK per ERK-YFP; replicate 1, z-score of ERK-YFP with insulin: higher = more YFP-tagged ERK signal.
The deposit covers about 23,000 reagents; this is an unselected part of those that have a named target and a result. 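Extra replicates exist only for a retested subset of genes; insulin dose and duration not given; both raised and lowered dpERK matter.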 Reagent sequences are not shown. Not stated in the record: the amount of reagent, the time to read-out.

gene knocked down	PubChem SID	replicate 1, z-score of dpERK with insulin	replicate 2, z-score of dpERK with insulin	replicate 1, z-score of dpERK under basal conditions	replicate 1, z-score of ERK-YFP with insulin
Syx13	SID104189628	-0.34	0.46	-0.18	0.28
CG42369	SID104183036	-0.19	-0.15	1.73	-0.31
Zpr1	SID104198224	-0.46	-1.04	0.13	0.21
CG32681	SID104197438	0.02	-0.04	-0.34	0.69
CG33096	SID104194232	0.07	0.6	0.36	-0.08
CG31883	SID104182353	0.39	0.16	0.72	1.02
CG15256	SID104181283	0.94	0.43	-0.04	-0.07
CG15256	SID104181732	-0.22	-0.06	-0.27	-0.64
coil	SID104187034	0.37	0.46	1.78	0.06
CG45105	SID104194794	-0.73	0.32	-1.19	1.16
CG45105	SID104195625	-0.98	0	-0.19	-2.63
tbrd-1	SID104194393	0.45	0.1	-0.16	0.44
CG15543	SID104194873	0.42	0.2	-0.82	-0.08
VhaM9.7-d	SID104194820	-0.2	0.82	-0.12	-1.15
Ugt49C1	SID104184044	-0.31	-0.07	0.38	0
sofe	SID104199543	-0.37	-0.11	-0.25	0.94
CG5742	SID104186741	-0.14	-0.22	-0.28	1.03
CG42296	SID104180186	0.67	0.18	-0.14	-0.16
Eogt	SID104180519	-0.26	1.15	-0.66	0.22
CG7102	SID104182439	0.75	0.37	0.01	0.47
CG7102	SID104182799	-0.48	-0.26	-0.52	0.01
COX7AL	SID104195105	-0.18	-1.27	0.75	1.12
CG43295	SID104189208	0.1	-0.39	0.47	0.38
